Measured values as given in patent publication US20160151505A1 (KONINKLIJKE PHILIPS N.V., priority 2011, published 2016).
At least one structure is not confirmed: it was looked up by name or label, or the drawing left a doubt.

Assay: Second-order rate constant determination of trans-cyclooctene derivatives with tetrazine
Conditions: UV-visible spectroscopy in acetonitrile at 20° C.
Protocol: The kinetics of the inverse-electron demand Diels-Alder reaction of a trans-cyclooctene derivative with 3-(5-acetamido-2-pyridyl)-6-(2-pyridyl)-1,2,4,5-tetrazine, performed in acetonitrile at 20° C., was determined using UV-visible spectroscopy. A cuvette was filled with acetonitrile (3 mL) and equilibrated at 20° C. 3-(5-Acetamido-2-pyridyl)-6-(2-pyridyl)-1,2,4,5-tetrazine (2.50×10^−7 mol) was added, followed by the trans-cyclooctene derivative (2.50×10^−7 mol). The decay of the absorption at λ=540 nm was monitored, and from this curve the second-order rate constant, k2, was determined assuming second order rate kinetics.

SMILES	rate contant* k2
NC1CC/C=C/CCC1NC(=O)Nc1ccccc1 (stereo not drawn) [47 major, cis phenyl((E)-8-aminocyclooct-4-en-1-yl)urea]	106 M⁻¹ s⁻¹
NC1CC/C=C/CCC1NC(=O)Nc1ccccc1 (stereo not drawn) [47 minor, cis phenyl((E)-8-aminocyclooct-4-en-1-yl)urea]	56 M⁻¹ s⁻¹
